Laboratory results: paper PMC4943950, “T4 Phage Tail Adhesin Gp12 Counteracts LPS-Induced Inflammation In Vivo” (Frontiers in Microbiology, 2016)
These are yes or no findings as the source states them, for the method shown. Where a sequence is shown, tags or fusion partners need not be part of it.

Biological target: T4 phage short tail fiber protein (tail adhesin) gp12, recombinant, His-tagged (bacteriophage T4) (UniProt P10930)
Assay: SDS-PAGE of the heated sample; purified gp12 final preparation, heated (denatured) before SDS-PAGE; monomer band at 57.5 kDa; both purified

B1: T4 phage short tail fiber protein (tail adhesin) gp12, recombinant, His-tagged (natural protein, bacteriophage T4, UniProt P10930 1-527, looked up)
chain: MSNNTYQHVSNESRYVKFDPTDTNFPPEITDVQAAIAAISPAGVNGVPDASSTTKGILFIPTEQEVIDGTNNTKAVTPATLATRLSYPNATETVYGLTRYSTNDEAIAGVNNESSITPAKFTVALNNAFETRVSTESSNGVIKISSLPQALAGADDTTAMTPLKTQQLAIKLIAQIAPSETTATESDQGVVQLATVAQVRQGTLREGYAISPYTFMNSSSTEEYKGVIKLGTQSEVNSNNASVAVTGATLNGRGSTTSMRGVVKLTTTAGSQSGGDASSALAWNADVIQQRGGQIIYGTLRIEDTFTIANGGANITGTVRMTGGYIQGNRIVTQNEIDRTIPVGAIMMWAADSLPSDAWRFCHGGTVSASDCPLYASRIGTRYGGNPSNPGLPDMRGLFVRGSGRGSHLTNPNVNGNDQFGKPRLGVGCTGGYVGEVQIQQMSYHKHAGGFGEHDDLGAFGNTRRSNFVGTRKGLDWDNRSYFTNDGYEIDPESQRNSKYTLNRPELIGNETRPWNISLNYIIKVKE
notes: No step that removes the His-Tag is described; also called phage adhesin
In the case of B1, the binding is reported as “no binding (condition: heated (denatured) before SDS-PAGE)”.
